Assay results published in article doi:10.1101/2021.07.16.452595.
These are yes or no findings as the source states them, for the method shown. Binding seen in cells or lysates may run through a third protein. Some binding calls cover weakened binding; strength is not graded here.

By UniProt entry, the sequences of proteins in these tests, tags left out. Residues count along the entry.
UniProt Q03137, residues 20-986: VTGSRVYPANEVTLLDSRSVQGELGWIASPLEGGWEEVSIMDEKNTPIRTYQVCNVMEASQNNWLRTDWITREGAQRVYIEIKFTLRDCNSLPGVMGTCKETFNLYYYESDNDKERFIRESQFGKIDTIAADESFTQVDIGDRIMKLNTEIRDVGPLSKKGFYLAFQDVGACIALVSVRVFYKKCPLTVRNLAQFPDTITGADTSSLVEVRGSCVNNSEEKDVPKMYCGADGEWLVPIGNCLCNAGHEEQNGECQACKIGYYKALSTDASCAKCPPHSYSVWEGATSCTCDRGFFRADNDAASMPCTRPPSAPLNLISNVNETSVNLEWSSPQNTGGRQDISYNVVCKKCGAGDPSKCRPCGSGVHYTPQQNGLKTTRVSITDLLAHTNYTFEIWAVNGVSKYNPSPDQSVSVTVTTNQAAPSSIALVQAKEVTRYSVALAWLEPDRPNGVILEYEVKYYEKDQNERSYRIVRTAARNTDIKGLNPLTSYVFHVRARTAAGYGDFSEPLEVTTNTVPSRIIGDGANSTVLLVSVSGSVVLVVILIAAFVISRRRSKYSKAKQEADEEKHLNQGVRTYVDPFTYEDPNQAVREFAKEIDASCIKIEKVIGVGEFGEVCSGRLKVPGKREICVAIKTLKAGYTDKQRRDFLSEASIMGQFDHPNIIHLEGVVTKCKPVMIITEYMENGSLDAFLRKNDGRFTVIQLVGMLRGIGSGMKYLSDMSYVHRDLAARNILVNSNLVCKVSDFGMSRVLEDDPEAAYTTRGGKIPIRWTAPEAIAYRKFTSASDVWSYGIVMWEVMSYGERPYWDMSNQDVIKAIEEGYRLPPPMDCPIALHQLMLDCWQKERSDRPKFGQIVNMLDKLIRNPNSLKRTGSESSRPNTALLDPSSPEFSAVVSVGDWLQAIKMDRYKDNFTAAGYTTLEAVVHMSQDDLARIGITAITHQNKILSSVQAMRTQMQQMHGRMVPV

Biological target: EphA4 (tyrosine kinase receptor EphA4), endogenous in mouse amygdala (mouse (endogenous in amygdala)) (UniProt Q03137)
Assay: co-IP

binding: binds
B1: gephyrin, endogenous in mouse amygdala (protein, UniProt Q8BUV3 1-769)
chain: MATEGMILTNHDHQIRVGVLTVSDSCFRNLAEDRSGINLKDLVQDPSLLGGTISAYKIVPDEIEEIKETLIDWCDEKELNLILTTGGTGFAPRDVTPEATKEVIEREAPGMALAMLMGSLNVTPLGMLSRPVCGIRGKTLIINLPGSKKGSQECFQFILPALPHAIDLLRDAIVKVKEVHDELEDLPSPPPPLSPPPTTSPHKQTEDKGVQCEEEEEEKKDSGVASTEDSSSSHITAAALAAKIPDSIISRGVQVLPRDTASLSTTPSESPRAQATSRLSTASCPTPKQIRRPDESKGVASRVGSLKARLPSCSSTYSVSEVQSRCSSKENILRASHSAVDITKVARRHRMSPFPLTSMDKAFITVLEMTPVLGTEIINYRDGMGRVLAQDVYAKDNLPPFPASVKDGYAVRAADGPGDRFIIGESQAGEQPTQTVMPGQVMRVTTGAPIPCGADAVVQVEDTELIRESDDGTEELEVRILVQARPGQDIRPIGHDIKRGECVLAKGTHMGPSEIGLLATVGVTEVEVNKFPVVAVMSTGNELLNPEDDLLPGKIRDSNRSTLLATIQEHGYPTINLGIVGDNPDDLLNALNEGISRADVIITSGGVSMGEKDYLKQVLDIDLHAQIHFGRVFMKPGLPTTFATLDIDGVRKIIFALPGNPVSAVVTCNLFVVPALRKMQGILDPRPTIIKARLSCDVKLDPRPEYHRCILTWHHQEPLPWAQSTGNQMSSRLMSMRSANGLLMLPPKTEQYVELHKGEVVDVMVIGRL
